What all share (test): co-IP
For experiment [1], the target named is T1, CLOCK-HA (UniProt O08785).
T1 sequence: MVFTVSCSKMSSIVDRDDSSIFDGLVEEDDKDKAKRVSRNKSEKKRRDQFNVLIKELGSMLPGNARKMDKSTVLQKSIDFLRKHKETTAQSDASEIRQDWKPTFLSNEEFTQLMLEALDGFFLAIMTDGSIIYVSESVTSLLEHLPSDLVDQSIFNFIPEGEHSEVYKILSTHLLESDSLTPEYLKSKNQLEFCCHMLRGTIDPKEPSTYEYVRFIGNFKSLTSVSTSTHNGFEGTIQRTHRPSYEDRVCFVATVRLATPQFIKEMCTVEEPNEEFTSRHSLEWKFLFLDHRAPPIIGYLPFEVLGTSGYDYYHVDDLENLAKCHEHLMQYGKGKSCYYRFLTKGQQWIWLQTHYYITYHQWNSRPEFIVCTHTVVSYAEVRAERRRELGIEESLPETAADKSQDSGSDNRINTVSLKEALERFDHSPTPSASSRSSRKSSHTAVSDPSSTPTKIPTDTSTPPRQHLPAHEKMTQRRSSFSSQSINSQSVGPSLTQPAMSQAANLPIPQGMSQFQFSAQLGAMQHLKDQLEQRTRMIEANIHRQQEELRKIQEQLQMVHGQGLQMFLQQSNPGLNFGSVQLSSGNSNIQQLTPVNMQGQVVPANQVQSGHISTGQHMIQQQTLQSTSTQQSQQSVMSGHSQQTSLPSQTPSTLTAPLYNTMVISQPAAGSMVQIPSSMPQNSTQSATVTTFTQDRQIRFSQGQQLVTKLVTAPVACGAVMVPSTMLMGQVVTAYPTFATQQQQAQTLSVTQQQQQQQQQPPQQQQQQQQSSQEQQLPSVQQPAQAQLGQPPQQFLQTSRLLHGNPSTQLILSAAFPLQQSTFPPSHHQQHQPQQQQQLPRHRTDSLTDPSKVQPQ

The chains behind the UniProt entries cited, without tags or fusion partners. Residues count along the entry.
UniProt Q6ZQ08: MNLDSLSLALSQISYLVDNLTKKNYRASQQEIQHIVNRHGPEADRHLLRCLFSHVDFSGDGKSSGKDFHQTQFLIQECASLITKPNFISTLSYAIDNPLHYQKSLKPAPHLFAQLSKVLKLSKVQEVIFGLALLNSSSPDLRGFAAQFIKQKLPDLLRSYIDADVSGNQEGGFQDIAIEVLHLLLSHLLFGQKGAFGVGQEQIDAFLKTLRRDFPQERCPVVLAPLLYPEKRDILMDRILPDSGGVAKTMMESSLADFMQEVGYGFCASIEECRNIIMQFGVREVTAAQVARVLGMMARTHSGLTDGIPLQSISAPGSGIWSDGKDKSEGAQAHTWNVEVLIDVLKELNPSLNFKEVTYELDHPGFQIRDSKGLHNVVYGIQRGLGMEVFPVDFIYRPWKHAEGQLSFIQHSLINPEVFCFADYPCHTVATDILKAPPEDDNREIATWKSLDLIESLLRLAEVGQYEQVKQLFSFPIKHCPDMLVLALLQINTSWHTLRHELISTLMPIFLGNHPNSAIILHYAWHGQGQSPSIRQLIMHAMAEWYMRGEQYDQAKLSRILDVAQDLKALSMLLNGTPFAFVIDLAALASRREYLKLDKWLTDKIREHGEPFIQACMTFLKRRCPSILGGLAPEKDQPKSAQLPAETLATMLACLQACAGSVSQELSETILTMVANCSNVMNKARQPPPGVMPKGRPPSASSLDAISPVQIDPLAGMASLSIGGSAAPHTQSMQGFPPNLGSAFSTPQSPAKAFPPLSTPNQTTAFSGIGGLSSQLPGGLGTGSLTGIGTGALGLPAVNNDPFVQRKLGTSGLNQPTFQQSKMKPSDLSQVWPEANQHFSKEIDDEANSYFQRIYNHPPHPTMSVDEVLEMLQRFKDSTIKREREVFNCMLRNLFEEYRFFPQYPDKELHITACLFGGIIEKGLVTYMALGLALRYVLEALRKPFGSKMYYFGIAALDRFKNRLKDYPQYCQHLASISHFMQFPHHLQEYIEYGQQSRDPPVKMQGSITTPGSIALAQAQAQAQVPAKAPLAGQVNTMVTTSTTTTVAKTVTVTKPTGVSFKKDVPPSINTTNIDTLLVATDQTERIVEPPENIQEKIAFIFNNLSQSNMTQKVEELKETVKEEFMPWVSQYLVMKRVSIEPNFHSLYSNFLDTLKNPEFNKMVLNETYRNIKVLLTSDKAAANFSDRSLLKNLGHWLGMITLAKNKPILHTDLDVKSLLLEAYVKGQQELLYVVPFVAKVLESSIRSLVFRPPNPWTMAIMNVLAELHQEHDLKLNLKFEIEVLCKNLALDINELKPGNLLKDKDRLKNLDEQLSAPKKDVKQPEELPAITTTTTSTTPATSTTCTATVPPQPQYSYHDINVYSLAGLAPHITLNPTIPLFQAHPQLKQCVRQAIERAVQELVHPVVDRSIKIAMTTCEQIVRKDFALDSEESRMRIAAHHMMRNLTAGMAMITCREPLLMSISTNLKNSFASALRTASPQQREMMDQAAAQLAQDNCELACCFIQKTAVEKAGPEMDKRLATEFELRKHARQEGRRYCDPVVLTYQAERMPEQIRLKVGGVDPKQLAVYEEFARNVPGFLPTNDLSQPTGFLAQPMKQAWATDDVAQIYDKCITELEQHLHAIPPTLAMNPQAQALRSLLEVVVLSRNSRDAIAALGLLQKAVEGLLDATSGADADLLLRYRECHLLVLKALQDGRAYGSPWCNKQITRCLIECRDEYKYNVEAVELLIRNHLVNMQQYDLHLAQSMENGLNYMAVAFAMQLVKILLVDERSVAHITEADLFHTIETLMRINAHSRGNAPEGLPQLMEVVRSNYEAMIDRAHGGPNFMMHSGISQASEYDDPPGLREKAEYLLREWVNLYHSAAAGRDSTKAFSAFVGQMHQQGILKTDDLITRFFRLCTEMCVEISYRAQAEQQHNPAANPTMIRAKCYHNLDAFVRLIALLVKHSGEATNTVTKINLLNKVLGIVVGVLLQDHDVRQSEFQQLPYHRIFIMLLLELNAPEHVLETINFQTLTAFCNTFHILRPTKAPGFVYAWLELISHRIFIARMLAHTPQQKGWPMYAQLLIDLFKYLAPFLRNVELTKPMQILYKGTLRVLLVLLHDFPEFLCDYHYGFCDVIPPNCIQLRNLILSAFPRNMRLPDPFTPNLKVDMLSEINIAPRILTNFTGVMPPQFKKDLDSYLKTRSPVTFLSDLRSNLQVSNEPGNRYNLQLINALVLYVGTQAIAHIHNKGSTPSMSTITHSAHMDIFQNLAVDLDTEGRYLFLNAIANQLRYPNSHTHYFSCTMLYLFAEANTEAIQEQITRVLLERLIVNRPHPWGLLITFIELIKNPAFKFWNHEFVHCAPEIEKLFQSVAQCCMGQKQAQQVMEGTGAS
UniProt A5YKK6, residues 1407-2376: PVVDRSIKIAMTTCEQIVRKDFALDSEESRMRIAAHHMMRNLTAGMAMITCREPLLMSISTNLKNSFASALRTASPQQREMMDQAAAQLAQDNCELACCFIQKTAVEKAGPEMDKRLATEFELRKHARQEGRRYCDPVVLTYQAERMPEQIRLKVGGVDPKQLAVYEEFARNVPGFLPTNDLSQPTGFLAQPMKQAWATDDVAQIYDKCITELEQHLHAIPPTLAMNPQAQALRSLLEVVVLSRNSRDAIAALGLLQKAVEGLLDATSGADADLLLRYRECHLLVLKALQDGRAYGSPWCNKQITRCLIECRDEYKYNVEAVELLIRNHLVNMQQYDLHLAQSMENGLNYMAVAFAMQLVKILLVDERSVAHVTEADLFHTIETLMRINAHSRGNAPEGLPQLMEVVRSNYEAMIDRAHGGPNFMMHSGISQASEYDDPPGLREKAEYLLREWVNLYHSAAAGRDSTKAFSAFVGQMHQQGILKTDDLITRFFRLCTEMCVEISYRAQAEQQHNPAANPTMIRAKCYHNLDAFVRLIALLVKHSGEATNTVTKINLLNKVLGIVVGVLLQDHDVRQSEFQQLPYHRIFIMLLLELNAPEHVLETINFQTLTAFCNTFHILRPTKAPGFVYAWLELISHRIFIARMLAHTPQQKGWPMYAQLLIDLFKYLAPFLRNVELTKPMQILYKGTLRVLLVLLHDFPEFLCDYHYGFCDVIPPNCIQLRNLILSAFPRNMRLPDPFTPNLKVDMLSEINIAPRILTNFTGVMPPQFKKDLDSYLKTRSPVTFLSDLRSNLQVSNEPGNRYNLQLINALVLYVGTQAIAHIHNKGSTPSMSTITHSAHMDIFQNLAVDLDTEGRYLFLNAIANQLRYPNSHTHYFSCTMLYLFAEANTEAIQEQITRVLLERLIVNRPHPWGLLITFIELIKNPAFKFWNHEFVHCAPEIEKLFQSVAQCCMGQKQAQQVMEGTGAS

Experiment [2] concerns the target T1, CLOCK-HA. This is another data set of the same source.
The target of experiment [3] is T2, Flag-tagged CLOCK (mouse) (UniProt O08785).
T2 sequence: T1 sequence

Where two headings read alike, the source gives them in different places. Results are given in words; binding and its absence hold for the method and conditions named. Binding seen in cells or lysates may run through a third protein. Some results given as binding are weak or reduced against the parent protein; the word gives no strength. Where a sequence is shown, tags or fusion partners need not be part of it.

Take “CNOT1 (endogenous, mouse liver) (from UniProt Q6ZQ08 1-2375)”: the binding result in experiment [1] is “no binding (condition: at ZT16)”; in experiment [2], “binds”.
“HA-tagged CNOT1-C (amino acids 1407-2376) (from UniProt A5YKK6 1407-2376) (domain or fragment)”: the binding entry in experiment [3] was “binds”.
